At least one compound was matched to its structure with a doubt left.
What was measured:
Format in all cases: biochemical
[1] = target: T1, α-synuclein (α-syn) (Homo sapiens, UniProt P37840); assay: PICUP assay of α-syn oligomer formation; settings: α-syn 60 μM, compound 50 μM (~molar ratio 1:1)
T1 construct: purchased rPeptide (Watkinsville, GA)
Protocol: Chemical and peptide source. Dimethylsulfoxide (DMSO) and thioflavin-T (ThT) were purchased from Alfa Aesar (Ward Hill, MA). Recombinant α-synuclein (α-syn) was procured from rPeptide (WatKinsville, GA). The recombinant p-tau isoform 1N4R was prepared as published previously (Fortin et al. 2021, Sui et al. 2015, Liu et al. 2020). Concerning the preparation of tau 0N4R, a bacterial expression plasmid consisting of the vector pET30a carrying a cDNA encoding the human Tau 0N4R isoform was a kind gift of Dr. Benjamin Wolozin (Boston University). […] General Characterizations. ^1H and ^13C {1H} NMR spectra were recorded using a 500 MHz Bruker instrument working at a frequency of 500 MHz for ^1H and at 126 MHz for ^13C. […] Thioflavin fluorescence assays. Thioflavin fluorescence assays were used to monitor fibril formation of commercial recombinant α-syn at a final concentration of 2 μM and treated with control DMSO and different compounds. […] Kinetics of fibril formation have been performed using ThT as published previously.^6, 12, 13, 24 The fluorescence emission experiments were performed with the excitation and emission wavelengths set at 440 and 485 nm, respectively, with a Synergy HT multi-mode microplate reader (BioTek, Winooski, VT). Samples were measured in three replicates. […] The percentage of fluorescence intensity at the plateau phase in Table 1 was expressed as mean #SEM. […]

The chains behind the UniProt entries cited, without tags or fusion partners. Residues count along the entry.
UniProt P10636, 1-412 isoform P10636-7: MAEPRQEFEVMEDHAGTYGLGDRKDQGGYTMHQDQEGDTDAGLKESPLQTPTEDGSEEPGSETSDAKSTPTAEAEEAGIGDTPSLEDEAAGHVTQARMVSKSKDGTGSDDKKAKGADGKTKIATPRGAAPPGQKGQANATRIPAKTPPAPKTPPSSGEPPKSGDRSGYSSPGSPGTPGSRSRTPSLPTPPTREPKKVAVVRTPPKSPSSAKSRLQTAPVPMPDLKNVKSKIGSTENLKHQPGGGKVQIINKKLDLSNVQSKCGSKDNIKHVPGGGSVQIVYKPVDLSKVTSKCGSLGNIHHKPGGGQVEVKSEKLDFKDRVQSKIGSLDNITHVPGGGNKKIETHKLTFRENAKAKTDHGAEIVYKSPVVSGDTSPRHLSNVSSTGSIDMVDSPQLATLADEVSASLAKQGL

[2] = target: T2, α-syn fibrils (Homo sapiens, UniProt P37840); assay: Transmission electron microscopy (TEM) of α-syn fibrils; settings: α-syn 2 μM, compound 100 μM, ~22 hours at 37° C.
T2 construct: purchased rPeptide (Watkinsville, GA)

[3] = target: T3, p-tau isoform 1N4R (Homo sapiens, UniProt P10636); assay: PICUP assay of p-tau 1N4R oligomer formation; settings: p-tau 4 μM, compound 50 μM (molar ratio 1:12.5)
T3 construct: made in house

O=C(Nc1ccc(NC(=O)Nc2cccc3[nH]ccc23)cc1)Nc1cccc2[nH]ccc12 [Compound 1, 3-(1H-indol-4-yl)-1-(4-{[(1H-indol-4-yl)carbamoyl]amino}phenyl)urea]
effect on α-syn oligomer formation (high molecular weight bands) by PICUP [1]: reduced α-syn oligomer formation | effect on α-syn fibrils by TEM [2]: reduced α-syn fibril formation | effect on p-tau 1N4R oligomer formation by PICUP [3]: failed to inhibit p-tau oligomer formation

— patent US20250241890A1, “1,4-DIUREAS AND 1,4-DITHIOUREAS AND USES THEREOF” (Purdue Research Foundation, priority 2024, published 2025)
